Values quoted from earlier work, collected in patent US20060134068A1, “Treatment of cancer by simultaneous inhibiton of BRAF and restoration or mimicry of p16INK4A activity” (Mount Sinai School of Medicine of New York University, priority 2004, published 2006).
Some of these results come from one statement about several compounds together. For at least one compound, name, drawing or mass did not settle the structure.

Test system: disseminated melanomas
Details: treatment of disseminated melanomas; cited from earlier work

SMILES | response rate
CC(=O)O[C@H]1C(=O)[C@@]2(C)[C@H]([C@H](OC(=O)c3ccccc3)[C@]3(O)C[C@H](OC(=O)[C@H](O)[C@@H](NC(=O)c4ccccc4)c4ccccc4)C(C)=C1C3(C)C)[C@]1(OC(C)=O)CO[C@@H]1C[C@@H]2O [taxol] | 10-20%
CN(C)/N=N/c1[nH]cnc1C(N)=O [Dacarbazine] | 10-20%
